Test results taken from the supplement of paper PMC10849652.
The other results are listed elsewhere or left out. Residues, ends and D or L forms follow the SMILES beside them. *: point of attachment. Cbz = O=C(OCc1ccccc1)*

Protein sequences, listed by entry. Tags and fused reporters are not part of them. Lines headed by an entry give the natural chain unless they say otherwise; changes in a name come on top.
UniProt Q96RG2: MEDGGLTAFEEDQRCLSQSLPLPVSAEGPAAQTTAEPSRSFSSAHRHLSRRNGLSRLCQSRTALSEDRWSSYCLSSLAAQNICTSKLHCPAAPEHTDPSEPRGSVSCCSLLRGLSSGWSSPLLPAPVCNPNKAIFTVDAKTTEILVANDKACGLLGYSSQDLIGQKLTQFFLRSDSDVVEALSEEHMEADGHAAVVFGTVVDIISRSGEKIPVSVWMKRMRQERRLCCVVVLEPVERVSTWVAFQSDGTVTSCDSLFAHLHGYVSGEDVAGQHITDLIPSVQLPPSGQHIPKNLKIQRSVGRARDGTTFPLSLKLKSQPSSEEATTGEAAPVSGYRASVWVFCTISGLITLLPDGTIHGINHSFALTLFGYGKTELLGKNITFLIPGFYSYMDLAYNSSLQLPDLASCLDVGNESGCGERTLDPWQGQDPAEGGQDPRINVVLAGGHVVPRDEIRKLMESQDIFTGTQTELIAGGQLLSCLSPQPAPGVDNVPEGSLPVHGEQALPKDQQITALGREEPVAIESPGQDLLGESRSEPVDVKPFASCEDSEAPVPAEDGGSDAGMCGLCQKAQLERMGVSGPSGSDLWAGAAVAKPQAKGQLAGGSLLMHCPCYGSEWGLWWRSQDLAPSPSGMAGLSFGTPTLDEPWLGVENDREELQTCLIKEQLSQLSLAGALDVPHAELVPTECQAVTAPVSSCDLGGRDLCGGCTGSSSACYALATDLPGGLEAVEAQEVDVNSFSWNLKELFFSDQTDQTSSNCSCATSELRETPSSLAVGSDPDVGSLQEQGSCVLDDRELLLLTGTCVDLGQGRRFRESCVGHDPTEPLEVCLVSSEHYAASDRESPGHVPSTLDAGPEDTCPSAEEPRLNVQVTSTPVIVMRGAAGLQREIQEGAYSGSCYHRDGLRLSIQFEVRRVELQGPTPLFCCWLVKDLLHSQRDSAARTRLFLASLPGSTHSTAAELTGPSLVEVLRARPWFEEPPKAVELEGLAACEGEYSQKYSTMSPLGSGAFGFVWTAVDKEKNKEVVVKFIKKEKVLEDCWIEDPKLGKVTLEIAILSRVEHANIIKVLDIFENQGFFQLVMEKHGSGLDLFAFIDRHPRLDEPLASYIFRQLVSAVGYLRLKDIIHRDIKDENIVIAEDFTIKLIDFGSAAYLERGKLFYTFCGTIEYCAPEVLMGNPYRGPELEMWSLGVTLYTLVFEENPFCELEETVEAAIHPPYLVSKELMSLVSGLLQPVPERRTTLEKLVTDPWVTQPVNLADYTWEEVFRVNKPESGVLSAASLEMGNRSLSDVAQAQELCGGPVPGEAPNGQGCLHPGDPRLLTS
UniProt P12955: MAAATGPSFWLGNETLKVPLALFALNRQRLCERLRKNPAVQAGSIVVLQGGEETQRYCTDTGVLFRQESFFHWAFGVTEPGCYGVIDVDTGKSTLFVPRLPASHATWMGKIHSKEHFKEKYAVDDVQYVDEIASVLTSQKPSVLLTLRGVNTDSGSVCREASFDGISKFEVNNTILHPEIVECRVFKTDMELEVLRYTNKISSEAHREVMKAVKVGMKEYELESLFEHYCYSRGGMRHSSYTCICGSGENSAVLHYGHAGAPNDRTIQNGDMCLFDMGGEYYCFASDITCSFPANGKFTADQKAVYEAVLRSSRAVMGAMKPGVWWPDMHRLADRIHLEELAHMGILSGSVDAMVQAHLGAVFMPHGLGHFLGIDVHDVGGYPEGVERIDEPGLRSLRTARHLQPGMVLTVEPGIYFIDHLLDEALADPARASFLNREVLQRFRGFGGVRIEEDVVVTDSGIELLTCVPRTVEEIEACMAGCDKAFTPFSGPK
UniProt Q9HBI1: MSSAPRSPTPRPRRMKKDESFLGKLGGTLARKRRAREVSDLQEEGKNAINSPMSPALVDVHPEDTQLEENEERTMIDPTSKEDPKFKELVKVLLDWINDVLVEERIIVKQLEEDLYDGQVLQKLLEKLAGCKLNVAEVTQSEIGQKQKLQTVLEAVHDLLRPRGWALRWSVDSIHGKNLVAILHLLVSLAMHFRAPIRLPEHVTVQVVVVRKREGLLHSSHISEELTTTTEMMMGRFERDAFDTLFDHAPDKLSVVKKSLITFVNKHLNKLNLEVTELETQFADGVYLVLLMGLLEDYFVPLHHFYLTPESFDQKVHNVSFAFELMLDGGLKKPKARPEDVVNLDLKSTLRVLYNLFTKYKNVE
UniProt O75459: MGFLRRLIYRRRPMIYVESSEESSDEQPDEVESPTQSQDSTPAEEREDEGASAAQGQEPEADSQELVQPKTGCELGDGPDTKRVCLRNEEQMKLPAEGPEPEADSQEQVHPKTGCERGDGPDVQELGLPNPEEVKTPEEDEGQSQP
UniProt Q14690: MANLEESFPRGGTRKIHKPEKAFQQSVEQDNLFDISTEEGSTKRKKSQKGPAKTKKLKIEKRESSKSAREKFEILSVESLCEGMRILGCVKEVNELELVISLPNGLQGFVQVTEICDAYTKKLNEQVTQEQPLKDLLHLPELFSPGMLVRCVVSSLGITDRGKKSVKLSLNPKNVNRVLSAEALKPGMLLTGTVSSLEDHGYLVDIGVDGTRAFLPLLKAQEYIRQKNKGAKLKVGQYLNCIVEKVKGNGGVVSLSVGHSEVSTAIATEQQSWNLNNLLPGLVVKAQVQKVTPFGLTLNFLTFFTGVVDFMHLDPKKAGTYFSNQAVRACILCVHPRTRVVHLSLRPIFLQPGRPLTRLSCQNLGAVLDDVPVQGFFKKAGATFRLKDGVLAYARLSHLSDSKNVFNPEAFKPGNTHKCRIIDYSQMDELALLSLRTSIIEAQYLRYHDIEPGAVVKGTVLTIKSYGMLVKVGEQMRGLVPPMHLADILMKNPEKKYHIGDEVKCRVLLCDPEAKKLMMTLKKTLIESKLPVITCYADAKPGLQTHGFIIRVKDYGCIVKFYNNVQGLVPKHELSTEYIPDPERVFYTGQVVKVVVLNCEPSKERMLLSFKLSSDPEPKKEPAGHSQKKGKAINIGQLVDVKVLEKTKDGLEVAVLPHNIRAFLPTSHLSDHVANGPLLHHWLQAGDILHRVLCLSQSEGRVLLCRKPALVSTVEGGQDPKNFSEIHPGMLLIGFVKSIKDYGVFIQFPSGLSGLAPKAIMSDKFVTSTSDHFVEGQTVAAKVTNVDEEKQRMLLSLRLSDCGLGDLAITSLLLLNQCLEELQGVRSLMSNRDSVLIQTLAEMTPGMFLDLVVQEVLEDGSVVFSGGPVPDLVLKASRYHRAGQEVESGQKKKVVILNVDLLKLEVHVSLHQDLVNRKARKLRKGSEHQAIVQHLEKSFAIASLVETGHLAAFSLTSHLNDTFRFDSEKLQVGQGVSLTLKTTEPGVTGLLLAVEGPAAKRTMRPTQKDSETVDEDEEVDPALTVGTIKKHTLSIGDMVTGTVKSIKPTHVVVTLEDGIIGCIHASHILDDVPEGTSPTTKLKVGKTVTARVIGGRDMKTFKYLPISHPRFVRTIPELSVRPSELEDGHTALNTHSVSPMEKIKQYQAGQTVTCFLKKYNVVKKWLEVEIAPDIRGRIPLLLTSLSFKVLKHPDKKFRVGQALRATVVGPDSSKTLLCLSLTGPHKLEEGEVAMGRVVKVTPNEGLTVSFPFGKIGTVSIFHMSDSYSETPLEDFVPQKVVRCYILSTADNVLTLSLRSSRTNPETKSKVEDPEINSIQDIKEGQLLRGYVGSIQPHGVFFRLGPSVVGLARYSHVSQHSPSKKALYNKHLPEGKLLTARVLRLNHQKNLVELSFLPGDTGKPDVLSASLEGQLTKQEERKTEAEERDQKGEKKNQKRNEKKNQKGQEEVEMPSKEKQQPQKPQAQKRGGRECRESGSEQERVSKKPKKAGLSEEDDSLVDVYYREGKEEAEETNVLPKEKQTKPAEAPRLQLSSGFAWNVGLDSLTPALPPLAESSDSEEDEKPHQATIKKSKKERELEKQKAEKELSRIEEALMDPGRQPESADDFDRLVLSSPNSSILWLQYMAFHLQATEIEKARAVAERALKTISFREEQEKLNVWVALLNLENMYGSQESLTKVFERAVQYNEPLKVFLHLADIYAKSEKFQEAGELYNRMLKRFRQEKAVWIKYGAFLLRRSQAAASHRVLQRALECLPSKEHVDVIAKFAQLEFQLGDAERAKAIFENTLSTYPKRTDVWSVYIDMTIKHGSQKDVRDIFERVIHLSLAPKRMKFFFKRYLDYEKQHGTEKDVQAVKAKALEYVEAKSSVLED
UniProt Q9BUH6, whole entry, looked up: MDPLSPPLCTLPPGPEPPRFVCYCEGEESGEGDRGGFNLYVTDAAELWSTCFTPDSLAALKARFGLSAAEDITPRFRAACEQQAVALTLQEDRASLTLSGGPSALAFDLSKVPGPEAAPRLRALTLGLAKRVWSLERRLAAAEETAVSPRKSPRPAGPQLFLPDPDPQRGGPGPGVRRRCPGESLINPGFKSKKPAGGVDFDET
UniProt Q9NUG6, whole entry, looked up: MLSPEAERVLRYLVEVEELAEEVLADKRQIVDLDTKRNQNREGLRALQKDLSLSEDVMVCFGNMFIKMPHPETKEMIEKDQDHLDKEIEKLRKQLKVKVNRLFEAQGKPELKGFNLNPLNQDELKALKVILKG
UniProt Q9BUL8: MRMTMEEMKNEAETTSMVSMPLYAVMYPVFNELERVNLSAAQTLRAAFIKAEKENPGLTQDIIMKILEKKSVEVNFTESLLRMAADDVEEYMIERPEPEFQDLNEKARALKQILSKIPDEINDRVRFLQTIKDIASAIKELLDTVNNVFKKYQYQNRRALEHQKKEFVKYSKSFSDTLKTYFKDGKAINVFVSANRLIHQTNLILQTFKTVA
UniProt Q8NBP7, whole entry, looked up: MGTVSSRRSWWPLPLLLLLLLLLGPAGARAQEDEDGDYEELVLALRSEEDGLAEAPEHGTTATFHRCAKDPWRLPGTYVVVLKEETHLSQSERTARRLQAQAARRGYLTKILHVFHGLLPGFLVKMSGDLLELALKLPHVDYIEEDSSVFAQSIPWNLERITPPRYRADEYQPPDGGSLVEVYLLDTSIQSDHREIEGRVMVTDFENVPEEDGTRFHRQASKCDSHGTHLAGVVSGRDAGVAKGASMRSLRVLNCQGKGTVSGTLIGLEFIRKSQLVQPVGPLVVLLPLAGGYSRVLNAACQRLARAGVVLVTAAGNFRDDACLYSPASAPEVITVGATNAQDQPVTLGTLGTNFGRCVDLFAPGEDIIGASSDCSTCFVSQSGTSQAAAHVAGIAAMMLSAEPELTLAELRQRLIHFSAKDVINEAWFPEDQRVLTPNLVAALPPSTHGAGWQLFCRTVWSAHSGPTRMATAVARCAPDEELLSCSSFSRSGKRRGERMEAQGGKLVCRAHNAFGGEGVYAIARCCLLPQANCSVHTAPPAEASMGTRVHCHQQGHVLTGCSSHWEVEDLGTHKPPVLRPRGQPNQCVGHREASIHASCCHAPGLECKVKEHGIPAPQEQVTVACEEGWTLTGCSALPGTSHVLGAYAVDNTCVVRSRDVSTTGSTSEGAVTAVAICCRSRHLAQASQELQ
UniProt Q9UNF0: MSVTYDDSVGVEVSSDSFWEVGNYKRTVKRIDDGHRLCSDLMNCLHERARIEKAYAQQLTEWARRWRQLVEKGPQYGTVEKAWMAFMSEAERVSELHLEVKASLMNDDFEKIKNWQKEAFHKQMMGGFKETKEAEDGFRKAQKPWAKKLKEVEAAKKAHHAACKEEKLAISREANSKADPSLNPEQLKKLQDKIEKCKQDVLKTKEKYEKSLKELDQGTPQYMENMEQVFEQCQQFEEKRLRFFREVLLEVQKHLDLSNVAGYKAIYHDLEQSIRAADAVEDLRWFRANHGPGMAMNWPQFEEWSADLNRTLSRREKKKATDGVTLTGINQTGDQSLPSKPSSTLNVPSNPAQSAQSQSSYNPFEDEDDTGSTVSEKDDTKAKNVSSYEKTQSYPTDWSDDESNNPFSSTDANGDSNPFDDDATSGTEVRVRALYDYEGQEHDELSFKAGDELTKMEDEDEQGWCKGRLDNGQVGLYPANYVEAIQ
UniProt O14737: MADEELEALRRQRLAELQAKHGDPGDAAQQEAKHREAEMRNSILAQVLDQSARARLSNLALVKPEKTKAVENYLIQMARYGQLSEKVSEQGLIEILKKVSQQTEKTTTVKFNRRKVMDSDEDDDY
UniProt P08559, whole entry, looked up: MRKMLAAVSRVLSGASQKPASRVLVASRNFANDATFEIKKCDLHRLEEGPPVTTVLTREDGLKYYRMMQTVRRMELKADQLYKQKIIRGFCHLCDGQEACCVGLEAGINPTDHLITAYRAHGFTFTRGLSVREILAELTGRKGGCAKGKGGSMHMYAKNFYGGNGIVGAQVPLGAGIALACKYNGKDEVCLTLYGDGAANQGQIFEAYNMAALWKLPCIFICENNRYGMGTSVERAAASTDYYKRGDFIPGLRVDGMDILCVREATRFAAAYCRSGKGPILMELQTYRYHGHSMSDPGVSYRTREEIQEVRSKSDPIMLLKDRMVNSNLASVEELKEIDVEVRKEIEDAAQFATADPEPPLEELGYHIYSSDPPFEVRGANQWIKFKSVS

Experiments:
Assay in all cases: log2 fold change, soluble protein after heating vs DMSO (PISA); higher = thermal stabilisation; K562 cells, 10 uM, 30 min; active = over 0.2 and 3.5 SD of the protein, either way, in both replicates (recomputed)
[1] = compound: C1COCCN1CCN2C3=CC=CC=C3N=C2NC(=O)C4=CC(=CC=C4)[N+](=O)[O-] [IRAK-1-4 Inhibitor I]
Outline: (§1)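 Quantification of soluble protein used TMTpro 16plex LC-MS/MS, with channel sums equalised. Samples were the supernatant after 21,000xg for 90 min of pooled aliquots from K562 cells (2×10^6 cells/mL) treated with 10 μM compound for 30 min, heated for 3 min over 48°C-58°C, and extracted in PBS with 0.5% NP-40 at 4°C. Values, from duplicates, describe thermal stability against control samples on a log2 fold-change scale.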

[2] = compound: C=CC(=O)N1CCC[C@@H](n2nc(-c3ccc(Oc4ccccc4)cc3)c3c(N)ncnc32)C1 [ibrutinib]
Outline: as §1

[3] = compound: CC(=O)c1cnc2ccc(-c3cc(Cl)c(O)c(Cl)c3)nc2c1N[C@H]1CC[C@H](CN(C)C)CC1
Outline: as §1

[4] = compound: CC(C)(C)Cn1c(N)nc2ccc(-c3[nH]c(C(C)(C)C)nc3-c3ccc(F)cc3)nc21 [ralimetinib]
Outline: as §1

[5] = compound: CC(C)(O)CC(=O)NCCn1ccc2ncnc(Nc3ccc(Oc4cccc(C(F)(F)F)c4)c(Cl)c3)c21
Outline: as §1

[6] = compound: CC(C)C1=C2N=C(C=C(N2N=C1)NCC3=CC=CC=C3)NCCCCCCN
Outline: as §1

[7] = compound: CC(C)C[C@@H](C=O)NC(=O)[C@H](CC(C)C)NC(=O)[C@H](CC(C)C)NC(=O)OCc1ccccc1
Outline: as §1

[8] = compound: CC(C)N(C[C@H]1O[C@@H](n2cnc3c(N)ncnc32)[C@H](O)[C@@H]1O)[C@H]1C[C@@H](CCc2nc3cc(C(C)(C)C)ccc3[nH]2)C1 [pinometostat]
Outline: as §1

[9] = compound: CC1=C(C(CC(=O)N1)C2=CC=C(C=C2)C(F)(F)F)C(=O)NC3=C(C=C4C(=C3)C=NN4)F
Outline: as §1

[10] = compound: CC1=C(C2=C(C=C1)C(=O)C3=CC=CC=C3N2CCCN)C
Outline: as §1

[11] = compound: CC1=C(C=C(C=C1)NC(=O)C2=CC(=CC=C2)C(C)(C)C#N)NC3=CC4=C(C=C3)N=CN(C4=O)C
Outline: as §1

[12] = compound: CC1=C(C=C(C=C1)NC(=O)C2=CC(=CC=C2)N(C)C)NC(=O)C3=CC=C(C=C3)O
Outline: as §1

[13] = compound: CC1=CC=C(C=C1)SC2=C3C=C(SC3=CN=C2)C(=O)N
Outline: as §1

[14] = compound: CC1=NC(=CC=C1)C2=C(N=C(N2)C(C)(C)C)C3=CC4=NC=CN=C4C=C3
Outline: as §1

[15] = compound: CCCCN(Cc1ccc(C(=O)NO)cc1)C(=O)Nc1ccccc1 [Nexturastat A]
Outline: as §1

[16] = compound: CCCS(=O)(=O)Nc1ccc(F)c(C(=O)c2c[nH]c3ncc(-c4ccc(Cl)cc4)cc23)c1F [vemurafenib]
Outline: as §1

[17] = compound: CCCS(=O)(=O)Nc1ccc(F)c(C(=O)c2c[nH]c3ncc(Cl)cc23)c1F
Outline: as §1

[18] = compound: CCCc1cc(C)[nH]c(=O)c1CNC(=O)c1cc(-c2ccnc(N3CCN(C)CC3)c2)cc2c1cnn2C(C)C
Outline: as §1

[19] = compound: CCN(CC)Cc1ccc2cc(COC(=O)Nc3ccc(C(=O)NO)cc3)ccc2c1 [givinostat]
Outline: as §1

[20] = compound: CCN(CCCOc1ccc2c(Nc3cc(CC(=O)Nc4cccc(F)c4)[nH]n3)ncnc2c1)CCOP(=O)(O)O [barasertib]
Outline: as §1

Measured: log2 fold change

PASK (UniProt Q96RG2)
inactive: [1] -0.001 | [2] -0.033 | [3] 0 | [4] -0.005 | [5] -0.097 | [6] -0.083 | [7] 0.006 | [8] 0.008 | [9] 0.049 | [10] -0.034 | [11] 0.025 | [12] 0.028 | [13] 0.069 | [14] 0.012 | [15] -0.074 | [16] -0.061 | [17] 0.089 | [18] -0.094 | [19] -0.004 | [20] 0.011

PEPD (UniProt P12955)
inactive: [1] 0.026 | [2] 0.07 | [3] -0.008 | [4] -0.04 | [5] -0.01 | [6] 0.01 | [7] -0.022 | [8] -0.009 | [9] 0.022 | [10] 0.041 | [11] -0.006 | [12] 0.001 | [13] 0.194 | [14] -0.023 | [15] 0 | [16] 0.036 | [17] 0.082 | [18] -0.052 | [19] -0.075 | [20] 0.01

PARVB (UniProt Q9HBI1)
inactive: [1] 0.026 | [2] -0.009 | [3] -0.025 | [4] 0.142 | [5] -0.081 | [6] -0.042 | [7] 0.013 | [8] 0.06 | [9] 0.02 | [10] 0.031 | [11] 0 | [12] -0.006 | [13] 0.038 | [14] 0.011 | [15] -0.021 | [16] 0.005 | [17] 0.039 | [18] 0.014 | [19] 0 | [20] 0.041

PAGE1 (UniProt O75459)
inactive: [1] 0.064 | [2] 0 | [3] 0.112 | [4] 0.153 | [5] 0.008 | [6] 0.126 | [7] -0.133 | [8] -0.042 | [9] 0.053 | [10] -0.134 | [11] 0.003 | [12] -0.014 | [13] -0.038 | [14] 0.007 | [15] 0.032 | [16] -0.019 | [17] -0.122 | [18] 0.001 | [19] -0.106 | [20] 0.068

PDCD11 (UniProt Q14690)
inactive: [1] 0.102 | [2] -0.074 | [3] -0.118 | [4] -0.083 | [5] -0.062 | [6] -0.228 | [7] 0.101 | [8] -0.039 | [9] 0.07 | [10] 0.066 | [11] -0.002 | [12] -0.022 | [13] 0.175 | [14] -0.069 | [15] -0.195 | [16] -0.044 | [17] -0.099 | [18] -0.264 | [19] 0.033 | [20] 0.108

PAXX (UniProt Q9BUH6)
inactive: [1] 0.024 | [2] 0.015 | [3] 0.034 | [4] -0.014 | [5] 0.024 | [6] 0.169 | [7] -0.045 | [8] -0.06 | [9] 0.018 | [10] 0 | [11] -0.012 | [12] 0.051 | [13] 0.056 | [14] 0.016 | [15] 0.025 | [16] -0.02 | [17] -0.027 | [18] -0.058 | [19] -0.013 | [20] -0.005

PDRG1 (UniProt Q9NUG6)
inactive: [1] 0.032 | [2] -0.028 | [3] -0.005 | [4] 0.108 | [5] 0.01 | [6] 0.002 | [7] -0.109 | [8] 0.004 | [9] -0.009 | [10] 0.062 | [11] 0.039 | [12] -0.064 | [13] 0 | [14] 0.012 | [15] 0.014 | [16] 0.032 | [17] -0.008 | [18] -0.054 | [19] 0.008 | [20] 0.009

PDCD10 (UniProt Q9BUL8)
inactive: [1] 0.027 | [2] -0.091 | [3] -0.174 | [4] -0.026 | [5] -0.06 | [6] -0.018 | [7] 0.023 | [8] -0.012 | [9] 0.007 | [10] 0.025 | [11] -0.119 | [12] -0.003 | [13] 0.036 | [14] 0.063 | [15] 0.007 | [16] 0.033 | [17] 0.063 | [18] -0.087 | [19] 0.016 | [20] 0.012

PDF (UniProt Q9HBH1)
inactive: [1] -0.012 | [2] -0.024 | [3] 0.014 | [4] -0.024 | [5] 0.016 | [6] -0.207 | [7] -0.002 | [8] -0.007 | [9] -0.015 | [10] 0.05 | [11] -0.051 | [12] 0.045 | [13] 0.018 | [14] 0.09 | [15] -0.037 | [16] 0.059 | [17] 0.031 | [18] -0.113 | [19] -0.056 | [20] -0.043

PCYOX1L (UniProt Q8NBM8)
inactive: [1] -0.016 | [2] 0.008 | [3] 0.003 | [4] -0.013 | [5] -0.016 | [6] 0.1 | [7] -0.049 | [8] -0.069 | [9] -0.056 | [10] -0.012 | [11] -0.033 | [12] -0.039 | [13] -0.043 | [14] -0.03 | [15] -0.06 | [16] 0.021 | [17] 0.005 | [18] 0.015 | [19] -0.027 | [20] 0.004

PDLIM4 (UniProt P50479)
inactive: [1] 0.015 | [2] -0.012 | [3] -0.033 | [4] 0.015 | [5] -0.032 | [6] 0.015 | [7] 0.009 | [8] -0.004 | [9] 0.045 | [10] 0.018 | [11] -0.012 | [12] -0.026 | [13] 0.001 | [14] -0.002 | [15] -0.022 | [16] 0.004 | [17] -0.01 | [18] -0.005 | [19] 0.08 | [20] 0.013

Two records drawn at random from the list so far:
PDF (UniProt Q9HBH1)
inactive: [1] -0.012 | [2] -0.024 | [3] 0.014 | [4] -0.024 | [5] 0.016 | [6] -0.207 | [7] -0.002 | [8] -0.007 | [9] -0.015 | [10] 0.05 | [11] -0.051 | [12] 0.045 | [13] 0.018 | [14] 0.09 | [15] -0.037 | [16] 0.059 | [17] 0.031 | [18] -0.113 | [19] -0.056 | [20] -0.043

PDCD10 (UniProt Q9BUL8)
inactive: [1] 0.027 | [2] -0.091 | [3] -0.174 | [4] -0.026 | [5] -0.06 | [6] -0.018 | [7] 0.023 | [8] -0.012 | [9] 0.007 | [10] 0.025 | [11] -0.119 | [12] -0.003 | [13] 0.036 | [14] 0.063 | [15] 0.007 | [16] 0.033 | [17] 0.063 | [18] -0.087 | [19] 0.016 | [20] 0.012

Continued:

PCSK9 (UniProt Q8NBP7)
inactive: [1] 0.049 | [2] 0.006 | [3] -0.061 | [4] 0.012 | [5] 0.032 | [6] 0.141 | [7] -0.078 | [8] 0.048 | [9] 0.01 | [10] 0.088 | [11] 0.126 | [12] -0.045 | [13] 0.002 | [14] -0.036 | [15] 0.048 | [16] -0.119 | [17] -0.053 | [18] 0.073 | [19] 0.091 | [20] -0.075

PACSIN2 (UniProt Q9UNF0)
inactive: [1] -0.052 | [2] -0.018 | [3] -0.192 | [4] 0.039 | [5] -0.13 | [6] -0.247 | [7] 0.058 | [8] 0.089 | [9] 0.02 | [10] 0.044 | [11] 0.012 | [12] -0.066 | [13] -0.006 | [14] -0.031 | [15] -0.007 | [16] 0.048 | [17] 0.016 | [18] 0.091 | [19] 0.115 | [20] 0.065

PDPR (UniProt Q8NCN5)
inactive: [1] 0.002 | [2] 0.048 | [3] -0.027 | [4] -0.043 | [5] 0.032 | [6] -0.044 | [7] -0.019 | [8] -0.019 | [9] -0.009 | [10] -0.018 | [11] 0.077 | [12] 0.015 | [13] 0.031 | [14] -0.002 | [15] -0.035 | [16] 0.017 | [17] 0.052 | [18] -0.023 | [19] -0.014 | [20] 0.022

PDCD5 (UniProt O14737)
inactive: [1] 0.01 | [2] 0.001 | [3] -0.005 | [4] -0.08 | [5] -0.024 | [6] 0.03 | [7] -0.024 | [8] -0.064 | [9] 0.027 | [10] 0.007 | [11] 0.207 | [12] -0.021 | [13] -0.006 | [14] 0.061 | [15] -0.107 | [16] -0.009 | [17] -0.046 | [18] -0.068 | [19] -0.004 | [20] -0.012

PDHA1 isoform 4 (UniProt P08559)
inactive: [1] -0.09 | [2] -0.059 | [3] 0.081 | [4] 0.047 | [5] -0.003 | [6] -0.041 | [7] -0.008 | [8] 0.148 | [9] 0.027 | [10] 0.041 | [11] 0.06 | [12] -0.032 | [13] -0.029 | [14] -0.062 | [15] 0.172 | [16] -0.064 | [17] -0.047 | [18] 0.102 | [19] 0.051 | [20] -0.026
